# Measurements reported in patent publication US9782455 (dated 2017).
# Legend:
# [1] = general procedure: Fmoc solid-phase peptide synthesis; H-Gly-2-chlorotrityl-polystyene polymer support (tetrapeptide fragment); conditions: whole synthesis, scale of the general procedure 1 mmol (tetrapeptide fragment), run 3
# [2] = Fmoc solid-phase peptide synthesis; H-Gly-2-chlorotrityl-polystyene polymer support (tetrapeptide fragment); conditions: whole synthesis, scale of the general procedure 1 mmol (tetrapeptide fragment)
substance,measurement,setting,value
H-His-Gly-Asp-Gly-Ser-Phe-Ser-Asp-Glu-Met-Asn-Thr-Ile-Leu-Asp-Asn-Leu-Ala-Ala-Arg-Asp-Phe-Ile-Asn-Trp-Leu-Ile-Gln-Thr-Lys-Ile-Thr-Asp-OH,crude HPLC purity,[1],59%
same,crude HPLC purity,[2]; run 1,52%
same,crude HPLC purity,[2]; run 2,39%
